For this test, the target named is Flag-tagged CCNB1 (UniProt P14635). The test can be described thus: affinity purification with mass spectrometry; HCT116 cells transfected with Flag-tagged CCNB1; RIPA lysis buffer; anti-Flag antibody-conjugated agarose; eluted with 100 uM Flag peptide; trypsin digest, mass spectrometry.

Protein sequences, listed by entry. Tags and fused reporters are not part of them.
UniProt P14635: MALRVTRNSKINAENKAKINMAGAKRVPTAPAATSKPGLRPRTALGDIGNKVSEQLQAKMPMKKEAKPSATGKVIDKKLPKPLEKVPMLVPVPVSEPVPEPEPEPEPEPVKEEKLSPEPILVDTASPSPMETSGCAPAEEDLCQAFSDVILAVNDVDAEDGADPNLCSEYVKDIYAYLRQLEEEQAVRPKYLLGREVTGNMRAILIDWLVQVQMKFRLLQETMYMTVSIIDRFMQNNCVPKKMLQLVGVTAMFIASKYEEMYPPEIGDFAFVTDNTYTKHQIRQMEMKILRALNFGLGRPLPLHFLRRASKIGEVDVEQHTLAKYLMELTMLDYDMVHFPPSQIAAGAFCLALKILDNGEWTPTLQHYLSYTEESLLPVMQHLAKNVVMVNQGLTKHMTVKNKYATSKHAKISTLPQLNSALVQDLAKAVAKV

Results are given in words; binding and its absence hold for the method and conditions named. In cells and extracts the contact can be indirect. Here binding means that the protein was enriched with, or labelled near, the bait; the list need not be complete.

B1: USP22 (endogenous) (enzyme, UniProt Q9UPT9 1-525)
chain: MVSRPEPEGEAMDAELAVAPPGCSHLGSFKVDNWKQNLRAIYQCFVWSGTAEARKRKAKSCICHVCGVHLNRLHSCLYCVFFGCFTKKHIHEHAKAKRHNLAIDLMYGGIYCFLCQDYIYDKDMEIIAKEEQRKAWKMQGVGEKFSTWEPTKRELELLKHNPKRRKITSNCTIGLRGLINLGNTCFMNCIVQALTHTPLLRDFFLSDRHRCEMQSPSSCLVCEMSSLFQEFYSGHRSPHIPYKLLHLVWTHARHLAGYEQQDAHEFLIAALDVLHRHCKGDDNGKKANNPNHCNCIIDQIFTGGLQSDVTCQVCHGVSTTIDPFWDISLDLPGSSTPFWPLSPGSEGNVVNGESHVSGTTTLTDCLRRFTRPEHLGSSAKIKCSGCHSYQESTKQLTMKKLPIVACFHLKRFEHSAKLRRKITTYVSFPLELDMTPFMASSKESRMNGQYQQPTDSLNNDNKYSLFAVVNHQGTLESGHYTSFIRQHKDQWFKCDDAIITKASIKDVLDSEGYLLFYHKQFLEYE
With B1, the binding result was “binds”.
